In the supplement of paper PMC8728848:
The other results are listed elsewhere or left out.

How the values were obtained:
Assay in all cases: glycan array binding signal (z-score within array); higher = stronger binding
Details in all cases: glycan notation: IUPAC condensed, linker removed
[1] = biological target: Gal(b1-4)GlcNAc(b1-3)Gal(b1-4)[Fuc(a1-3)]GlcNAc(b1-3)Gal(b1-4)[Fuc(a1-3)]GlcNAc
Procedure, shortened: (§1)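 Columns mapping to the same glycan were averaged after glycan names were converted to IUPAC-condensed notation. The data come from 3228 arrays in the Consortium for Functional Glycomics database, limited to those with an available protein sequence. Binding is reported as a within-array Z-score averaged across arrays of one protein sequence and across linkers.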

[2] = biological target: Gal(b1-4)GlcNAc(b1-3)GalNAc
Procedure, shortened: as §1

[3] = biological target: Gal(b1-4)GlcNAc(b1-3)[Fuc(a1-3)GlcNAc(b1-6)]Gal(b1-4)Glc
Procedure, shortened: as §1

[4] = biological target: Gal(b1-4)GlcNAc(b1-3)[Gal(b1-4)GlcNAc(b1-6)]Gal(b1-4)GlcNAc
Procedure, shortened: as §1

[5] = biological target: Gal(b1-4)GlcNAc(b1-3)[GlcNAc(b1-6)]Gal(b1-4)GlcNAc
Procedure, shortened: as §1

[6] = biological target: Gal(b1-4)GlcNAc(b1-6)Gal(b1-4)GlcNAc
Procedure, shortened: as §1

[7] = biological target: Gal(b1-4)GlcNAc(b1-6)GalNAc
Procedure, shortened: as §1

[8] = biological target: Gal(b1-4)GlcNAc(b1-6)[Gal(b1-3)]GalNAc
Procedure, shortened: as §1

[9] = biological target: Gal(b1-4)GlcNAc(b1-6)[Gal(b1-4)GlcNAc(b1-3)]GalNAc
Procedure, shortened: as §1

[10] = biological target: Gal(b1-4)GlcNAc6P
Procedure, shortened: as §1

[11] = biological target: Gal(b1-6)Gal
Procedure, shortened: as §1

[12] = biological target: Gal3S(b1-3)GalNAc
Procedure, shortened: as §1

[13] = biological target: Gal3S(b1-3)GlcNAc
Procedure, shortened: as §1

[14] = biological target: Gal3S(b1-3)[Fuc(a1-4)]GlcNAc
Procedure, shortened: as §1

[15] = biological target: Gal3S(b1-4)Glc
Procedure, shortened: as §1

[16] = biological target: Gal3S(b1-4)Glc6S
Procedure, shortened: as §1

[17] = biological target: Gal3S(b1-4)GlcNAc
Procedure, shortened: as §1

[18] = biological target: Gal3S(b1-4)[Fuc(a1-3)]Glc6S
Procedure, shortened: as §1

[19] = biological target: Gal3S(b1-4)[Fuc(a1-3)]GlcNAc
Procedure, shortened: as §1

[20] = biological target: Gal3S(b1-4)[Fuc(a1-3)]GlcNAc6S
Procedure, shortened: as §1

[21] = biological target: Gal3S4S(b1-4)GlcNAc
Procedure, shortened: as §1

[22] = biological target: Gal3S6S(b1-4)GlcNAc
Procedure, shortened: as §1

[23] = biological target: Gal3S6S(b1-4)GlcNAc6S
Procedure, shortened: as §1

[24] = biological target: Gal4S(b1-4)GlcNAc
Procedure, shortened: as §1

[25] = biological target: Gal4S6S(b1-4)GlcNAc
Procedure, shortened: as §1

[26] = biological target: Gal6P(b1-4)GlcNAc
Procedure, shortened: as §1

[27] = biological target: Gal6S(b1-3)GlcNAc
Procedure, shortened: as §1

[28] = biological target: Gal6S(b1-3)GlcNAc6S
Procedure, shortened: as §1

[29] = biological target: Gal6S(b1-4)Glc
Procedure, shortened: as §1

[30] = biological target: Gal6S(b1-4)Glc6S
Procedure, shortened: as §1

[31] = biological target: Gal6S(b1-4)GlcNAc
Procedure, shortened: as §1

[32] = biological target: Gal6S(b1-4)GlcNAc6S
Procedure, shortened: as §1

[33] = biological target: GalNAc(a1-3)Gal
Procedure, shortened: as §1

[34] = biological target: GalNAc(a1-3)GalNAc
Procedure, shortened: as §1

[35] = biological target: GalNAc(a1-3)GalNAc(a1-3)Gal(a1-4)Gal(b1-4)GlcNAc
Procedure, shortened: as §1

[36] = biological target: GalNAc(a1-3)GalNAc(b1-3)Gal(a1-4)Gal(b1-4)Glc
Procedure, shortened: as §1

[37] = biological target: GalNAc(b1-3)Gal
Procedure, shortened: as §1

[38] = biological target: GalNAc(b1-3)Gal(a1-4)Gal(b1-4)GlcNAc
Procedure, shortened: as §1

[39] = biological target: GalNAc(b1-3)Gal(a1-4)Gal(b1-4)GlcNAc(b1-3)Gal(b1-4)Glc
Procedure, shortened: as §1

[40] = biological target: GalNAc(b1-3)Gal(a1-6)Gal(b1-4)Glc
Procedure, shortened: as §1

[41] = biological target: GalNAc(b1-3)GalNAc
Procedure, shortened: as §1

[42] = biological target: GalNAc(b1-3)GlcNAc
Procedure, shortened: as §1

[43] = biological target: GalNAc(b1-4)Gal(b1-4)Glc
Procedure, shortened: as §1

[44] = biological target: GalNAc(b1-4)GlcNAc
Procedure, shortened: as §1

[45] = biological target: GalNAc(b1-4)GlcNAc(b1-2)Man
Procedure, shortened: as §1

B1: Pbx1CASH domain (Cryptococcus neoformans) (protein)
chain: MDETKPLWGNPRADGISLACKDSIVERNVVYDATDGAIVLFGSAGSTVKNNHVYARTRVILGGINLVDYEPWDGDYTNVKVHHNHLYALGRYFKVGIVIGPASWSDDTESVVHSASVTDNEFSGGYWGYGIVVASAKNFEVLRNKVIWDGEQGVARFSGVPGS
glycan array binding signal (z-score) [1]: -0.319 | glycan array binding signal (z-score) [2]: -0.508 | glycan array binding signal (z-score) [3]: 0.63 | glycan array binding signal (z-score) [4]: -0.937 | glycan array binding signal (z-score) [5]: -0.595 | glycan array binding signal (z-score) [6]: -0.145 | glycan array binding signal (z-score) [7]: -0.497 | glycan array binding signal (z-score) [8]: -0.463 | glycan array binding signal (z-score) [9]: 0.617 | glycan array binding signal (z-score) [10]: -0.546 | glycan array binding signal (z-score) [11]: 1.21 | glycan array binding signal (z-score) [12]: -0.209 | glycan array binding signal (z-score) [13]: -0.497 | glycan array binding signal (z-score) [14]: -0.138 | glycan array binding signal (z-score) [15]: -0.695 | glycan array binding signal (z-score) [16]: 0.01 | glycan array binding signal (z-score) [17]: -0.115 | glycan array binding signal (z-score) [18]: 0.604 | glycan array binding signal (z-score) [19]: -0.504 | glycan array binding signal (z-score) [20]: 0.19 | glycan array binding signal (z-score) [21]: -0.228 | glycan array binding signal (z-score) [22]: -0.224 | glycan array binding signal (z-score) [23]: 1.02 | glycan array binding signal (z-score) [24]: -0.788 | glycan array binding signal (z-score) [25]: -0.132 | glycan array binding signal (z-score) [26]: -0.384 | glycan array binding signal (z-score) [27]: -0.878 | glycan array binding signal (z-score) [28]: -0.488 | glycan array binding signal (z-score) [29]: -0.195 | glycan array binding signal (z-score) [30]: 0.884 | glycan array binding signal (z-score) [31]: -0.404 | glycan array binding signal (z-score) [32]: -0.284 | glycan array binding signal (z-score) [33]: 0.032 | glycan array binding signal (z-score) [34]: -0.916 | glycan array binding signal (z-score) [35]: 0.621 | glycan array binding signal (z-score) [36]: 1.06 | glycan array binding signal (z-score) [37]: -0.556 | glycan array binding signal (z-score) [38]: 0.058 | glycan array binding signal (z-score) [39]: -0.154 | glycan array binding signal (z-score) [40]: -0.333 | glycan array binding signal (z-score) [41]: -0.471 | glycan array binding signal (z-score) [42]: -0.202 | glycan array binding signal (z-score) [43]: 1.53 | glycan array binding signal (z-score) [44]: -0.736 | glycan array binding signal (z-score) [45]: -0.748
